Measured values published in PubChem BioAssay AID270 (DTP/NCI, 2004).
Inconclusive results are not listed. Rule for the calls: active = survival T/C of 150% or more; inactive = T/C below 125% in these data.

Tested on: BDF1 mice, s.c. Lewis lung carcinoma, T/C %
Assay: NCI In Vivo Anticancer Drug Screen. Data for tumor model Lewis Lung Carcinoma (subcutaneous) in B6D2F1 (BDF1) mice
Conditions: endpoint: median survival time, schedule: Q01DX009 (ip), higher = longer survival
Procedure: The antitumor activity of compounds was measured in mice bearing transplantable tumors. Survival or tumor size were measured and the results are expressed as the measurement made in the treated group (T) divided by the measurement made in the vehicle treated control group (C). The tumor model used in this assay is Lewis Lung Carcinoma (subcutaneous) in B6D2F1 (BDF1) mice

Measured: T/C

COc1cc2c(c(OC)c1OC)-c1ccc(OC)c(=O)cc1[C@@H](N)CC2
inactive: dose: 0.63 mg/kg/injection, vehicle: Klucel (hydroxypropylcellulose) (HPC) 112 % of control | dose: 1.25 mg/kg/injection, vehicle: Klucel (hydroxypropylcellulose) (HPC) 117 % of control | dose: 2.5 mg/kg/injection, vehicle: Klucel (hydroxypropylcellulose) (HPC) 122 % of control | dose: 5.0 mg/kg/injection, vehicle: Klucel (hydroxypropylcellulose) (HPC) 101 % of control

COc1c(O)cc2c(c1OC)-c1ccc(OC)c(=O)cc1[C@@H](NC(C)=O)CC2
inactive: dose: 0.63 mg/kg/injection, vehicle: saline with Tween-80 = 99 % of control | dose: 1.25 mg/kg/injection, vehicle: saline with Tween-80 = 104 % of control | dose: 2.5 mg/kg/injection, vehicle: saline with Tween-80 = 103 % of control | dose: 5.0 mg/kg/injection, vehicle: saline with Tween-80 = 104 % of control
